Values of other authors, collected in US9629882B2, “Strain of Cobetia marina and biosurfactant extract obtained from same” (UNIVERSIDAD DE VALPARAISO, priority 2011, dated 2017).
At least one structure is not confirmed: it was looked up by name or label, or the drawing left a doubt.

Key:
Cobetia marina = Cobetia marina reference

CO[C@H]1/C=C/O[C@@]2(C)Oc3c(C)c(O)c4c(O)c(c(/C=N/N5CCN(C)CC5)c(O)c4c3C2=O)NC(=O)/C(C)=C\C=C\[C@H](C)[C@H](O)[C@@H](C)[C@@H](O)[C@@H](C)[C@H](OC(C)=O)[C@@H]1C [Rifampicin]
Sensibility to antibiotic (Cobetia marina): −
Sensibility to antibiotic (Halomonas halodurans): +
